The whole screen tested about 390,000 compounds, of which about 610 (0.16%) were called active. The inconclusive results got no clear call from the source; some entries with a clear call stand among them for comparison. Calls come from the whole dose curve; as a rule, active = well fitted inhibition curve with a large enough effect; inconclusive = small, poorly fitted or top-dose-only effect, or effect the other way, or another doubt; inactive = no such curve, though single readings can be large or run the other way. A potency beside an inconclusive call is a rough fit, not a confirmed value.
Assay: Nrf2 qHTS screen for inhibitors: counterscreen for cytotoxicity
Conditions: A549 ARE-Fluc cells, CellTiter-Fluor viability, 18-24 h; activity change, negative = cytotoxicity: at 46 µM (top of the series)
Procedure, shortened: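 Cytotoxicity counterscreen: CellTiter-Fluor fluorescence was measured in A549 ARE_Fluc cells after 18-24 h of compound exposure in a concentration series. The subsequent BugLite luminescent read reports ARE-luciferase activity.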
% is set by controls: 0 for no effect and ±100 for the full control effect; potency is the fitted concentration of half-maximal effect.

Question: Which Potency does the source give for `COc1cc(NC(=O)c2noc3c2CCCC3)c(OC)cc1Cl` here?
Answer: inconclusive: 5.62 µM [activator, single point]

Question: Which Potency does the source give for `NC(=O)c1ccc(Nc2ccc3c(c2)CCC3)c([N+](=O)[O-])c1` here?
Answer: inconclusive: 20.6 µM [falling, partial curve, poor fit]

Question: With `O=C(COc1ccc(F)cc1)Nc1ccc(Cl)c(-c2nc3ccccc3[nH]2)c1` as the compound, how does the Potency read?
Answer: inconclusive: 29.1 µM [falling, single point]

Question: Which Potency does the source give for `O=c1[nH]c(/C=C\c2ccc(O)c(Cl)c2)nc(O)c1[N+](=O)[O-]` here?
Answer: inconclusive: 20.6 µM [falling, single point]

Question: For `CCCN1CCC(N(CCc2ccccc2)Cc2ccccc2)CC1`, which Potency is on record?
Answer: inconclusive: 32.6 µM [falling, partial curve, poor fit]

Question: With `Cc1ccc(-c2nnc(SCC(=O)N/N=C/c3ccc(C)s3)n2-c2ccccc2)cc1` as the compound, how does the Potency read?
Answer: inactive

Question: For `O=C(Nc1ccccc1)Nc1ccc(Cl)nc1Cl`, which Potency is on record?
Answer: inconclusive: 29.1 µM [falling, single point]

Question: Which Potency does the source give for `O=C(O)c1ccc(C2Nc3ccccc3-c3nnc(SCc4ccc(Cl)cc4)nc3O2)cc1` (stereo unspecified) here?
Answer: inactive

Question: For `Cc1ccc(-c2nnc(Nc3ccccc3)o2)cc1`, which Potency is on record?
Answer: inactive

Question: Which Potency does the source give for `O=C(Cc1ccc(Br)c2ccccc12)N/N=C/c1ccccn1` here?
Answer: inconclusive: 32.6 µM [falling, partial curve, poor fit]

Question: Which Potency does the source give for `Cc1ccc(Sc2ccc(NC(=O)c3ccc(S(C)(=O)=O)cc3Cl)cc2)cc1` here?
Answer: inconclusive: 16.4 µM [falling, single point]

Question: For `O=C(c1ccco1)N1CCCC(c2nc(-c3ccc(S(=O)(=O)NCc4ccccc4)cc3)no2)C1` (stereo unspecified), which activity change, negative = cytotoxicity is on record?
Answer: inactive: -10.9% [at 1.84 µM]

Question: For `COC(=O)c1scc(C)c1N/N=C(\C)c1cc(F)c(Cl)cc1F`, which Potency is on record?
Answer: inconclusive: 32.6 µM [falling, partial curve, poor fit]

Question: With `COc1cc(C2NC(=O)c3ccccc3O2)cc(OC)c1OC` (stereo unspecified) as the compound, how does the Potency read?
Answer: inactive

Question: Which Potency does the source give for `CCC(C)NCC(=O)Nc1ccc(-c2nc3cc(NC(=O)CNC(C)CC)ccc3o2)cc1` (stereo unspecified) here?
Answer: inconclusive: 29.1 µM [falling, single point]

Question: Which Potency does the source give for `O=C(c1ccccc1)C1(c2ccccc2)OC1c1ccccc1` (stereo unspecified) here?
Answer: inactive

Question: Which Potency does the source give for `CSc1nc(N)nc(SCC(=O)Nc2ccc(Cl)cc2)c1C#N` here?
Answer: inconclusive: 25.9 µM [falling, single point]

Question: With `N#CC1=C2SCN(Cc3ccccc3)CN2C(=O)CC1c1ccccc1F` (stereo unspecified) as the compound, how does the Potency read?
Answer: inconclusive: 0.651 µM [activator, partial curve]

Question: With `CCOC(=O)C1=C(Cc2ccc(F)cc2)C(=O)c2ccccc2C1=O` as the compound, how does the Potency read?
Answer: active: 16.4 µM

Question: With `COc1ccc(-c2cc3ccc(O)c(CN4CCCC4)c3oc2=O)cc1OC` as the compound, how does the Potency read?
Answer: inconclusive: 20.6 µM [activator, partial curve]

Question: For `CC1(C)Cc2cccc(OCC(=O)N3CCN(c4ccc([N+](=O)[O-])cc4)CC3)c2O1`, which Potency is on record?
Answer: inconclusive: 18.4 µM [falling, partial curve, poor fit]

Question: With `O=C(/C(=C/O)N=Nc1cccc(C(F)(F)F)c1)c1ccccc1` as the compound, how does the Potency read?
Answer: inconclusive: 8.2 µM [falling, partial curve, poor fit]

Question: For `CC1CCc2onc(C(=O)NCc3ccco3)c2C1` (stereo unspecified), which Potency is on record?
Answer: inconclusive: 9.2 µM [falling, partial curve, poor fit]

Question: With `Cc1nn(C)c(Cl)c1S(=O)(=O)N(Cc1ccco1)c1ncnc2nc[nH]c12` as the compound, how does the Potency read?
Answer: inactive

Question: For `CCOc1ccc(/C=C/c2nc(C#N)c(NCCCOC)o2)cc1`, which Potency is on record?
Answer: inactive

Question: Which Potency does the source give for `CCOC(=O)c1c(-c2cccs2)csc1NC(=O)CSc1ncn[nH]1` here?
Answer: inactive

Question: Which Potency does the source give for `COc1ccc(-c2cc(=O)oc3c(C)c(O)ccc23)cc1` here?
Answer: inconclusive: 29.1 µM [activator, partial curve, poor fit]

Question: With `CCc1nn2c(=O)cc(COC(=O)c3ccccc3NC(=O)c3cccs3)nc2s1` as the compound, how does the Potency read?
Answer: inactive

Question: For `N#C/C(=C/c1ccc(O)c([N+](=O)[O-])c1)C(=O)Nc1ccccc1`, which Potency is on record?
Answer: inconclusive: 16.4 µM [falling, single point]

Question: Which Potency does the source give for `Cc1ccc(OCC(O)CN2CCOCC2)cc1` (stereo unspecified) here?
Answer: inactive

Question: Which Potency does the source give for `CC(C)C[C@H]1C(=O)N2CCC[C@H]2[C@]2(O)O[C@](NC(=O)C3C=C4c5cccc6[nH]c(Br)c(c56)C[C@H]4N(C)C3)(C(C)C)C(=O)N12` (stereo partly specified) here?
Answer: inconclusive: 29.1 µM [falling, partial curve, poor fit]

Question: With `Cc1ccc(Nc2nc(-c3cccnc3)nc3ccccc23)cc1` as the compound, how does the Potency read?
Answer: inactive

Question: With `O=c1cc(-c2ccccc2Cl)oc2ccc([N+](=O)[O-])c(O)c12` as the compound, how does the Potency read?
Answer: inconclusive: 20.6 µM [falling, partial curve, poor fit]

Question: Which Potency does the source give for `NC(=O)C1(N2CCCCC2)CCN(C(=S)Nc2ccc(S(N)(=O)=O)cc2)CC1` here?
Answer: inconclusive: 3.26 µM [activator, partial curve, poor fit]

Question: For `Oc1cc(NCc2cccnc2)ccc1-c1nc2ccccc2o1`, which Potency is on record?
Answer: inactive

Question: Which Potency does the source give for `Clc1ccc(-c2noc(-c3cccnc3N3CCN(c4ccccc4)CC3)n2)cc1` here?
Answer: inconclusive: 23.1 µM [activator, partial curve, poor fit]

Question: For `CCN1CCN(C(=O)Nc2cccc3ccccc23)CC1`, which Potency is on record?
Answer: inconclusive: 32.6 µM [activator, partial curve, poor fit]

Question: Which Potency does the source give for `O=C(Nc1ccc(Cl)cn1)Nc1ccc(Cl)cn1` here?
Answer: inactive

Question: Which Potency does the source give for `Nc1[nH]n(-c2ccccc2)c(=O)c1N=Nc1ccc2c(c1)OCO2` here?
Answer: inconclusive: 16.4 µM [falling, partial curve]

Question: With `O=C(NCc1ccccc1)C1(C(F)(F)F)C/C(=C/CCO)CCCO1` (stereo unspecified) as the compound, how does the Potency read?
Answer: inactive

Question: Which Potency does the source give for `CC(C)(C)OC(=O)[C@H](Cc1ccccc1)NC(=O)c1nc[nH]c1C(=O)NCC(=O)OCc1ccccc1` here?
Answer: inconclusive: 32.6 µM [falling, partial curve, poor fit]

Question: For `COc1ccc(OC)c(NC(=O)CSC2=Nc3ccccc3C3=NC(CCC(=O)NCCc4ccccc4)C(=O)N23)c1` (stereo unspecified), which Potency is on record?
Answer: inactive

Question: For `CN1C/C(=C/c2ccccc2[N+](=O)[O-])C(=O)/C(=C\c2ccccc2[N+](=O)[O-])C1`, which Potency is on record?
Answer: inconclusive: 18.4 µM [falling, single point]

Question: With `COc1cc2ncnc(NCc3ccccc3)c2cc1OC` as the compound, how does the Potency read?
Answer: inactive

Question: Which Potency does the source give for `CCC(c1nnnn1Cc1ccco1)N(Cc1cc2cc(OC)ccc2[nH]c1=O)C1CCCCC1` (stereo unspecified) here?
Answer: inconclusive: 32.6 µM [falling, single point]

Question: For `CCN(CC)C(=O)c1sc2nc(-c3cccs3)cc(-c3ccc(Cl)cc3)c2c1N`, which Potency is on record?
Answer: inconclusive: 20.6 µM [activator, partial curve, poor fit]

Question: For `O=C(CC(NS(=O)(=O)c1ccc(Cl)cc1)c1ccco1)NCc1cccnc1` (stereo unspecified), which Potency is on record?
Answer: inconclusive: 20.6 µM [activator, partial curve, poor fit]

Question: With `Cc1ccc(SCC(Cc2ccccc2)N2CCN(CCc3ccccc3)CCC2=O)cc1` (stereo unspecified) as the compound, how does the Potency read?
Answer: inconclusive: 23.1 µM [falling, partial curve, poor fit]

Question: Which Potency does the source give for `O=C(COC(=O)c1cc([N+](=O)[O-])ccc1N1CCOCC1)NCc1ccc(Cl)cc1Cl` here?
Answer: inconclusive: 25.9 µM [falling, partial curve, poor fit]

Question: For `Cc1ccc(Nc2nc(-c3c(C)nc4ccccn34)cs2)cc1`, which Potency is on record?
Answer: inconclusive: 20.6 µM [falling, partial curve]

Question: With `O=C(N/N=C\c1ccc(CNS(=O)(=O)c2ccccc2)o1)C(=O)Nc1ccc(F)cc1` as the compound, how does the Potency read?
Answer: inactive

Question: With `Cc1ccc(-c2nnn(CC(=O)N(c3ccccc3F)C(C(=O)NC3CCCC3)c3ccco3)n2)o1` (stereo unspecified) as the compound, how does the Potency read?
Answer: inconclusive: 29.1 µM [falling, partial curve, poor fit]

Question: For `O=C(NC1CCCC1)c1cc(S(=O)(=O)N2CCCC2)ccc1Cl`, which Potency is on record?
Answer: inactive

Question: Which Potency does the source give for `O=[N+]([O-])c1c(Nc2ccccc2O)cc(Cl)c2nonc12` here?
Answer: inconclusive: 20.6 µM [falling, single point]

Question: Which Potency does the source give for `Cc1ccccc1OCCNC(=O)c1ccccc1Sc1ccccc1C#N` here?
Answer: inactive

Question: Which Potency does the source give for `Cn1c(=O)n(C)c2cc(NS(=O)(=O)c3ccc(C(C)(C)C)cc3)c(NCc3ccccc3)cc21` here?
Answer: inconclusive: 29.1 µM [falling, single point]

Question: With `COc1ccc(-c2nn(CC(=O)Nc3ccc(Cl)c(Cl)c3)c(=O)c3ccccc23)cc1` as the compound, how does the Potency read?
Answer: inconclusive: 6.51 µM [falling, partial curve, poor fit]

Question: For `Cc1ccc(Nc2nc(C)c(NC(=O)c3ccc(C)cc3)c(Nc3ccc(C)cc3)n2)cc1`, which Potency is on record?
Answer: inconclusive: 29.1 µM [falling, partial curve, poor fit]

Question: With `O=C(CSc1ccc(Cl)cc1)Nc1ccccc1N1CCN(C(=O)c2ccccc2)CC1` as the compound, how does the Potency read?
Answer: inconclusive: 29.1 µM [falling, single point]

Question: Which Potency does the source give for `Cc1ccc(CNc2ccc3c(c2)ncn3C)cc1` here?
Answer: inactive

Question: Which Potency does the source give for `COc1ccc(C(CNC(=O)c2ccc(-c3nc4ccccc4s3)o2)N2CCCC2)cc1` (stereo unspecified) here?
Answer: inconclusive: 20.6 µM [falling, single point]

Question: Which Potency does the source give for `CC1CCCC(C)N1C(=O)Cn1cc(C#N)c2ccccc21` (stereo unspecified) here?
Answer: inconclusive: 3.26 µM [falling, partial curve, poor fit]

Question: For `Cc1ccc(-c2n[nH]c3c2C(c2cccs2)N(c2ccc(Cl)cc2)C3=O)cc1` (stereo unspecified), which Potency is on record?
Answer: inconclusive: 29.1 µM [falling, partial curve, poor fit]

Question: With `Cc1cc(C)nc(N2CCC(C(=O)N3CCN(c4cc(Cl)ccc4C)CC3)CC2)n1` as the compound, how does the Potency read?
Answer: inconclusive: 23.1 µM [falling, partial curve, poor fit]

Question: For `Cc1ccccc1OCC(O)CN1CCN(C)CC1` (stereo unspecified), which Potency is on record?
Answer: inconclusive: 20.6 µM [activator, partial curve, poor fit]

Source: PubChem BioAssay AID504648 (National Center for Advancing Translational Sciences (NCATS), 2011)
